Source: PMC9539280 (Advanced Science, 2022)

Test system: hCMs
Test: RNA-seq transcriptome analysis of drug-treated hCMs
Type: cell-based, human
Conditions: compared to apilimod and remdesivir

CC(C)c1nc(CN(C)C(=O)N[C@H](C(=O)N[C@@H](Cc2ccccc2)C[C@H](O)[C@H](Cc2ccccc2)NC(=O)OCc2cncs2)C(C)C)cs1 [Ritonavir, ritonavir]
alteration of the transcriptome of hCMs: minimally altered the transcriptome

Cc1cccc(C)c1OCC(=O)N[C@@H](Cc1ccccc1)[C@@H](O)C[C@H](Cc1ccccc1)NC(=O)[C@H](C(C)C)N1CCCNC1=O [Lopinavir, lopinavir]
alteration of the transcriptome of hCMs: minimally altered the transcriptome
